# PubChem BioAssay AID1487 (National Center for Advancing Translational Sciences (NCATS), 2009)
# Where “and” joins values, the source holds several entries; their conditions need not be identical. Equal entries are not always repeated. The list shows a part of the results. These are further read-outs of the screen, such as a control signal, another cell line or another target. No call is given for them. The list favours compounds with an active or inconclusive main result. Potencies come from curve fits of mixed quality, noted in brackets.
# Experiment: qHTS Assay for Modulators of Lamin A Splicing
# Details: HeLa LMNA splicing GFP/RFP minigene ratio, 48 h
# Outline: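 S3 HeLa cells stably expressing lamin A-EGFP splicing minigene plus DsRed2, 600 cells/well, 48 h compound exposure at 37C. Laser-scanning cytometry; analysed as GFP (500-530 nm)/RFP (575-640 nm) total intensity ratio; 0.5% DMSO vehicle.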
# [1] = measured here: RFP viability control channel
# [2] = measured here: GFP splicing reporter channel
smiles,measurement,setting,value
CCOC(=O)C1=C(NC(=S)NC(=O)c2ccccc2)c2ccccc2CC1C(C)C (centres undefined),AC50,[1],"3.98 µM [rising, full curve]"
O=C(CSc1nnc(NC(=O)c2ccc3c(c2)OCO3)s1)NCc1ccco1,AC50,[2],"0.00316 µM [rising, full curve, poor fit]"
CCOc1ccc(-c2nc(C#N)c(N3CCN(Cc4ccccc4)CC3)o2)cc1,AC50,[1],"35.5 µM [rising, single point]"
Cc1ccc(CNC(=O)/C=C/c2cccs2)cc1,AC50,[2],"11.2 µM [rising, partial curve]"
same,AC50,[1],"14.1 µM [rising, single point]"
Cc1ccc(C2CC(=O)NC(SCc3ccccc3)=C2C#N)cc1 (centres undefined),AC50,[1],"15.8 µM [rising, single point]"
CCCS(=O)(=O)N1CCC(Cc2ccc(OC)cc2)(C(=O)OCC)CC1,AC50,[1],"0.00501 µM [falling, full curve, poor fit]"
CCn1c(CN2CCCCC2)nc2cc(NC(=O)COc3ccc(C(C)(C)C)cc3)ccc21,AC50,[2],"3.55 µM [falling, partial curve, poor fit]"
same,AC50,[1],"0.0355 µM [falling, full curve, poor fit]"
O=c1c(Cc2ccc(Cl)cc2Cl)c(O)ccn1Cc1ccc(Cl)cc1,AC50,[1],"17.8 µM [rising, single point]"
Cc1n[nH]c(C)c1S(=O)(=O)N1CCc2ccccc21,AC50,[2],"10 µM [falling, partial curve]"
same,AC50,[1],"10 µM [falling, partial curve]"
Oc1c(CN2CCCCC2)cc(COCc2ccccc2)c2cccnc12,AC50,[1],"17.8 µM [rising, single point]"
O=C(COC(=O)c1ccccc1[N+](=O)[O-])c1ccc(C2CCCCC2)cc1,AC50,[2],"10 µM [falling, single point]"
same,AC50,[1],"20 µM [falling, partial curve, poor fit]"
Cc1ccc(S(=O)(=O)NCCSc2nnnn2-c2ccccc2)cc1,AC50,[1],"10 µM [rising, single point]"
CSCC[C@H](NC(=O)C(C)Oc1ccc(Cl)cc1)c1nc2ccccc2[nH]1 (some centres undefined),AC50,[1],"35.5 µM [rising, single point]"
CC(=O)N1CCN(C(=O)CC2OC(=O)c3ccccc32)CC1 (centres undefined),AC50,[2],"15.8 µM [falling, single point]"
same,AC50,[1],"25.1 µM [falling, single point]"
COC(=O)[C@@H]1[C@@H](C)N(CCc2cc(OC)c(OC)c(OC)c2)C(=O)N[C@H]1c1ccccc1,AC50,[1],"0.316 µM [falling, partial curve]"
C[C@H]1O[C@@H](O[C@H]2[C@@H](O)C[C@H](O[C@H]3[C@@H](O)C[C@H](O[C@H]4CC[C@@]5(C)[C@H](CC[C@@H]6[C@@H]5C[C@@H](O)[C@]5(C)[C@@H](C7=CC(=O)OC7)CC[C@]65O)C4)O[C@@H]3C)O[C@@H]2C)C[C@H](O)[C@@H]1O,AC50,[2],"15.8 µM [rising, single point]"
same,AC50,[1],"562 nM [rising, full curve] and 4.47 µM [rising, full curve, poor fit]"
CCOc1ccc(-c2[nH]ncc2Oc2ccccc2OCC)c(O)c1,AC50,[2],"31.6 µM [rising, single point]"
same,AC50,[1],"35.5 µM [rising, single point]"
CCn1c(C(=O)N2CCC(Cc3ccccc3)CC2)cc2sccc21,AC50,[2],"15.8 µM [rising, single point]"
Cn1c(=O)c2nc3ccccc3nc2n(C)c1=O,AC50,[2],"0.02 µM [falling, full curve, poor fit]"
COc1ccccc1N=C(C)C1=C(O)CSC1=O,AC50,[2],"3.55 µM [falling, single point]"
same,AC50,[1],"3.16 µM [falling, single point]"
Cc1ccsc1/C=N/NC(=O)c1ccc(Cn2cc(Br)cn2)o1,AC50,[2],"11.2 µM [rising, partial curve]"
same,AC50,[1],"11.2 µM [rising, partial curve]"
C=CCOCCN(C)C1=NS(=O)(=O)c2ccccc21,AC50,[1],"0.794 µM [falling, full curve, poor fit]"
Cc1ccc(S(=O)(=O)/N=C(\N)Nc2nc(C)c3ccccc3n2)cc1,AC50,[1],"31.6 µM [rising, single point]"
Cc1cnc(CNc2ncncc2-c2c(C)noc2C)cn1,AC50,[2],"35.5 µM [falling, single point]"
same,AC50,[1],"35.5 µM [falling, single point]"
CCOC(=O)c1c(NC(=O)CSc2nnc(-c3c[nH]c4ccccc34)n2CCOC)sc2c1CCCC2,AC50,[2],"15.8 µM [rising, single point]"
Cc1nn(-c2ccccc2)c2c1C(c1ccc([N+](=O)[O-])cc1)N1C(=N2)C(=O)Nc2ccccc21 (centres undefined),AC50,[1],"15.8 µM [rising, partial curve]"
Cc1oc(-c2cccc(Br)c2)nc1Cn1c(SCc2cccc(F)c2)nc2cccnc21,AC50,[1],"11.2 µM [rising, single point]"
COc1cccc(C(C)NC(=S)NCc2ccc(Cl)cc2)c1 (centres undefined),AC50,[1],"0.282 µM [rising, partial curve, poor fit]"
CN(C)CCNC(=O)/C(=C/c1ccc(-c2ccc(Cl)cc2Cl)o1)NC(=O)c1ccccc1,AC50,[2],"5.01 µM [rising, single point]"
same,AC50,[1],"35.5 µM [falling, single point]"
Cc1nn(Cc2ccccc2)c(Cl)c1C(=O)OCc1nnc(-c2ccc(Cl)cc2)o1,AC50,[2],"15.8 µM [rising, single point]"
same,AC50,[1],"15.8 µM [rising, single point]"
COc1cc2[nH]c(=S)nc(NC3CCCC3)c2cc1OC,AC50,[1],"4.47 µM [rising, single point]"
CSCCC(NS(=O)(=O)c1ccc2ccccc2c1)C(=O)OCC(=O)c1ccc(C(C)C)cc1 (centres undefined),AC50,[2],"35.5 µM [rising, single point]"
same,AC50,[1],"35.5 µM [rising, single point]"
COc1ccc(C)cc1NC(=O)CSc1nnc(COc2ccc(C)cc2)n1Cc1ccco1,AC50,[2],"11.2 µM [rising, single point]"
same,AC50,[1],"14.1 µM [rising, partial curve]"
O=C(CCCC(=O)OCC1CCCO1)OCC1CCCO1 (centres undefined),AC50,[2],"31.6 µM [rising, partial curve, poor fit]"
CSCCOC(=O)C1=C(C)NC(=O)CC1c1ccccc1Cl (centres undefined),AC50,[2],"10 µM [rising, partial curve]"
same,AC50,[1],"14.1 µM [rising, partial curve]"
CCCCc1c(C)c2ccc(OC)c(/C(C)=N\O)c2oc1=O,AC50,[1],"31.6 µM [rising, single point]"
Cc1[nH]nc(SCC(=O)NCc2ccc(F)cc2)c1[N+](=O)[O-],AC50,[2],"1.26 µM [falling, single point]"
same,AC50,[1],"4.47 µM [rising, single point]"
O=C(CCc1ccc(S(=O)(=O)NCCc2ccccc2)cc1)N1CCN(Cc2ccc3c(c2)OCO3)CC1,AC50,[2],"17.8 µM [rising, single point]"
same,AC50,[1],"14.1 µM [rising, single point]"
O=C(NCc1nc(-c2ccccc2)no1)c1ccc(Br)o1,AC50,[1],"10 µM [rising, partial curve]"
O=C(NCc1ccco1)c1cc(S(=O)(=O)N2CCOCC2)c(Cl)cc1Cl,AC50,[1],"35.5 µM [rising, single point]"
CCCCCNC(=O)C1CCC(Cn2c(=O)c3sccc3n(CC)c2=O)CC1 (centres undefined),AC50,[2],"10 µM [falling, partial curve, poor fit]"
O=C(NCc1ccc2[nH]c3c(c2c1)CCCC3)c1ccc(S(=O)(=O)N2CCCCC2)cc1,AC50,[2],"2.82 µM [rising, partial curve, poor fit]"
same,AC50,[1],"14.1 µM [rising, partial curve, poor fit]"
COc1ccc(N2C(=O)CC(Sc3nnnn3-c3ccc(F)cc3)C2=O)cc1 (centres undefined),AC50,[2],"2.51 µM [falling, partial curve, poor fit]"
same,AC50,[1],"0.708 µM [rising, single point]"
Cc1ccc(NC(=O)C2CCCN(C(=O)c3ccc(Cl)cc3)C2)cc1S(=O)(=O)N1CCOCC1 (centres undefined),AC50,[2],"6.31 µM [falling, partial curve, poor fit]"
same,AC50,[1],"2.82 µM [falling, partial curve, poor fit]"
CCCCNC(=O)CC1N=C2c3ccccc3N=C(SCC(=O)Nc3ccccc3OC)N2C1=O (centres undefined),AC50,[2],"14.1 µM [rising, partial curve, poor fit]"
same,AC50,[1],"14.1 µM [rising, partial curve]"
O=C(CC1C(=O)NCCN1Cc1ccoc1)NCCc1ccc(Cl)cc1 (centres undefined),AC50,[2],"0.0251 µM [rising, full curve, poor fit]"
CC(OC(=O)C(C)N1C(=O)C2C3C=CC(C4CC34)C2C1=O)C(=O)c1ccccc1 (centres undefined),AC50,[1],"15.8 µM [rising, single point]"
NC(N)=NC(N)=Nc1cccc(Cl)c1,AC50,[2],"0.01 µM [falling, full curve, poor fit]"
same,AC50,[1],"6.31 µM [falling, single point]"
CCC(CC)C(=O)N1CCc2cc(OC)c(OC)cc2C1COc1ccc(F)cc1 (centres undefined),AC50,[2],"17.8 µM [falling, partial curve]"
CC1(C)CC(CCN(Cc2ccccc2)C(=O)c2ccco2)(c2ccccc2)CCO1 (centres undefined),AC50,[1],"12.6 µM [rising, partial curve, poor fit]"
Cc1nc(NC(=O)c2ccccc2)sc1-c1csc(Nc2cccc(F)c2)n1,AC50,[2],"15.8 µM [falling, single point]"
same,AC50,[1],"15.8 µM [falling, single point]"

# Pulled one by one from above (three):
smiles,measurement,setting,value
CCn1c(C(=O)N2CCC(Cc3ccccc3)CC2)cc2sccc21,AC50,[2],"15.8 µM [rising, single point]"
CCn1c(CN2CCCCC2)nc2cc(NC(=O)COc3ccc(C(C)(C)C)cc3)ccc21,AC50,[1],"0.0355 µM [falling, full curve, poor fit]"
Cc1cnc(CNc2ncncc2-c2c(C)noc2C)cn1,AC50,[2],"35.5 µM [falling, single point]"

# Another view of part of the listing above:
smiles	measurement	setting	value
CCC(CC)C(=O)N1CCc2cc(OC)c(OC)cc2C1COc1ccc(F)cc1 (centres undefined)	AC50	[2]	17.8 µM [falling, partial curve]
CC1(C)CC(CCN(Cc2ccccc2)C(=O)c2ccco2)(c2ccccc2)CCO1 (centres undefined)	AC50	[1]	12.6 µM [rising, partial curve, poor fit]
Cc1nc(NC(=O)c2ccccc2)sc1-c1csc(Nc2cccc(F)c2)n1	AC50	[2]	15.8 µM [falling, single point]
